No constants are given. Whether binding was seen depends on the method and setting. Some results given as binding are weak or reduced against the parent protein; the word gives no strength. Where a sequence is shown, tags or fusion partners need not be part of it.
T1: GST-MUS81-EME1 complex (UniProt Q96NY9 1-551; Q96AY2 1-570)
T1 construct: MUS81 subunit of the complex encoded by pGEX-6P-1-MUS81-HisEME1; EME1 subunit of the complex encoded by pGEX-6P-1-MUS81-HisEME1; Plasmid was a gift from Dr. Stephen West and Dr. Curtis Harris; the construct is not described further; source: E. coli Rossetta (DE3) pLysS, purified (Glutathione Sepharose, Heparin, MonoS)
T1 sequence (looked up) 1: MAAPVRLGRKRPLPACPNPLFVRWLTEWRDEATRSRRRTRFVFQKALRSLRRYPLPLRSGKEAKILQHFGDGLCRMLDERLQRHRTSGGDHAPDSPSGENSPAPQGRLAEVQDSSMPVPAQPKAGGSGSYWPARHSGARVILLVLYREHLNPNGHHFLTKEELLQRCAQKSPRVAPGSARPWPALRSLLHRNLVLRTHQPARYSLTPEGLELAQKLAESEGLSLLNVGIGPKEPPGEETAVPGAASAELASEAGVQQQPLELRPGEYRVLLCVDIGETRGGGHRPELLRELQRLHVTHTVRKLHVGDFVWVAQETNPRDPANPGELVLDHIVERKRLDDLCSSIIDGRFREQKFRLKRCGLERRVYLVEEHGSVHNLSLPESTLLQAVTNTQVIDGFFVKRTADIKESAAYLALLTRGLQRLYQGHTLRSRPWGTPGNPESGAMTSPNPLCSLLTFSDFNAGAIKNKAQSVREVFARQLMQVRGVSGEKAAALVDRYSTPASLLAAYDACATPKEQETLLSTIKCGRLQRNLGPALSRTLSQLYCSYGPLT
T1 sequence (looked up) 2: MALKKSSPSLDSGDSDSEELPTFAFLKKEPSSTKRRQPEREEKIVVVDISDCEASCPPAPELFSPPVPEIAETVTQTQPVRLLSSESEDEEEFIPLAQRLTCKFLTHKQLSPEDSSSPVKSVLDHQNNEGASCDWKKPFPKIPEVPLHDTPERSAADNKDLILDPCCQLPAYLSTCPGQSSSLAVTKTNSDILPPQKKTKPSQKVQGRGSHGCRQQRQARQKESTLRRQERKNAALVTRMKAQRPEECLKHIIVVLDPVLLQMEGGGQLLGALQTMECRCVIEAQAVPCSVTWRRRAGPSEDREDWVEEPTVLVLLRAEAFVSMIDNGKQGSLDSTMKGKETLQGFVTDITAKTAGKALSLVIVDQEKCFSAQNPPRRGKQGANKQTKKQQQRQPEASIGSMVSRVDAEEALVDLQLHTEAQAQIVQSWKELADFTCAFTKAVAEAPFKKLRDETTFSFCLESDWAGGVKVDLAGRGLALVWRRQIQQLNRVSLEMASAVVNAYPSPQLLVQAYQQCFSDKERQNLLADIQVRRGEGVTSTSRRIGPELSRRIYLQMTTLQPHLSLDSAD

T2: GST-MUS81 (1-278) (UniProt Q96NY9)
T2 sequence: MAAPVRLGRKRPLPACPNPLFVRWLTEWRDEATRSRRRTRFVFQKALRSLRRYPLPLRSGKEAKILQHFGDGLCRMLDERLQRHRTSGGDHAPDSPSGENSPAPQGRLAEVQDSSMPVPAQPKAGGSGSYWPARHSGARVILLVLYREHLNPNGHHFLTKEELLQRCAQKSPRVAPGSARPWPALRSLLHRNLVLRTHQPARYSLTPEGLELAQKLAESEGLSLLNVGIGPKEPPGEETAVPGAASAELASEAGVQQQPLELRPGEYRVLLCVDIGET

T3: GST-MUS81 (UniProt Q96NY9)
T3 sequence: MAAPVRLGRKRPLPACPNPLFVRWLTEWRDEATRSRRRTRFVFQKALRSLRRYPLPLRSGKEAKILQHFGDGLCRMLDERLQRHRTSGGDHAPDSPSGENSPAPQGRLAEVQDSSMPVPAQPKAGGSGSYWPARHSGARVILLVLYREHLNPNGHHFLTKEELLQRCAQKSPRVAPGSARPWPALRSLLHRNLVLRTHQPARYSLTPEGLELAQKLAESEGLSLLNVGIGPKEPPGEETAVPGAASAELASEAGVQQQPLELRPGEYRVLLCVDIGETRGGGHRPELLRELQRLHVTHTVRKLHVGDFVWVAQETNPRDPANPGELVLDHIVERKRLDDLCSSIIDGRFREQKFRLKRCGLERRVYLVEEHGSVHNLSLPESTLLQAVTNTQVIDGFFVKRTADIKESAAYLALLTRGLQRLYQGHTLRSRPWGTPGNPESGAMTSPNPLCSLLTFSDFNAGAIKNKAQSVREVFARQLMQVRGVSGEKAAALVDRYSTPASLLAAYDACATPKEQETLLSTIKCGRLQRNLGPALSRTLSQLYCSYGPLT


What was measured:
Assay in all cases: pull-down; purified GST-MUS81-EME1, GST-MUS81 or GST-MUS81 fragments (5 µg) incubated with MBP-tagged RECQ4 fragments (5 µg) and Glutathione Sepharose 4 Fast Flow beads in 1X K buffer with 150 mM KCl, 0.01% NP40, 1 mM DTT, 30 min, 4 °C; flow-through and bound fractions on SDS-PAGE, Coomassie blue; both purified
GST-MUS81-EME1 complex = target: T1, GST-MUS81-EME1 complex
GST-MUS81 (1-278) = target: T2, GST-MUS81 (1-278)
GST-MUS81 = target: T3, GST-MUS81

binding (GST-MUS81-EME1 complex)	binding (GST-MUS81 (1-278))	binding (GST-MUS81)	Binder
no binding (tested: 5 µg each)			MBP-RECQ4 (1-400) Δ3 (domain or fragment, UniProt O94761 1-400) MERLRDVRERLQAWERAFRRQRGRRPSQDDVEAAPEETRALYREYRTLKRTTGQAGGGLRSSESLPAAAEEAPEPRCWGPHLNRAATKSPQSTPGRSRQGSVPDYGQRLKANLKGTLQAGPALGRRPWPLGRASSKASTPKPPGTGPVPSFAEKVSDEPPQLPEPQPRPGRLQHLQASLSQRLGSLDPGWLQRCHSEVPDFLGAPKACRPDLGSEESQLLIPGESAVLGPGAGSQGPEASAFQEVSIRVGSPQPSSSGGEKRRWNEEPWESPAQVQQESSQAGPPSEGAGAVAVEEDPPGEPVQAQPPQPCSSPSNPRYHGLSPSSQARAGKAEGTAPLHIFPRLARHDRGNLNMKQKHYVRGRALRSRLLRKQAWKQKWRKKGECFGGGGATVTTK
no binding (tested: 5 µg each)			MBP-RECQ4 (1-322) (domain or fragment, UniProt O94761 1-322) MERLRDVRERLQAWERAFRRQRGRRPSQDDVEAAPEETRALYREYRTLKRTTGQAGGGLRSSESLPAAAEEAPEPRCWGPHLNRAATKSPQSTPGRSRQGSVPDYGQRLKANLKGTLQAGPALGRRPWPLGRASSKASTPKPPGTGPVPSFAEKVSDEPPQLPEPQPRPGRLQHLQASLSQRLGSLDPGWLQRCHSEVPDFLGAPKACRPDLGSEESQLLIPGESAVLGPGAGSQGPEASAFQEVSIRVGSPQPSSSGGEKRRWNEEPWESPAQVQQESSQAGPPSEGAGAVAVEEDPPGEPVQAQPPQPCSSPSNPRYHGL
	binds	binds	RECQ4 (construct of the pull-down with GST-MUS81 and GST-MUS81 fragments) (protein, UniProt O94761 1-1208) MERLRDVRERLQAWERAFRRQRGRRPSQDDVEAAPEETRALYREYRTLKRTTGQAGGGLRSSESLPAAAEEAPEPRCWGPHLNRAATKSPQSTPGRSRQGSVPDYGQRLKANLKGTLQAGPALGRRPWPLGRASSKASTPKPPGTGPVPSFAEKVSDEPPQLPEPQPRPGRLQHLQASLSQRLGSLDPGWLQRCHSEVPDFLGAPKACRPDLGSEESQLLIPGESAVLGPGAGSQGPEASAFQEVSIRVGSPQPSSSGGEKRRWNEEPWESPAQVQQESSQAGPPSEGAGAVAVEEDPPGEPVQAQPPQPCSSPSNPRYHGLSPSSQARAGKAEGTAPLHIFPRLARHDRGNYVRLNMKQKHYVRGRALRSRLLRKQAWKQKWRKKGECFGGGGATVTTKESCFLNEQFDHWAAQCPRPASEEDTDAVGPEPLVPSPQPVPEVPSLDPTVLPLYSLGPSGQLAETPAEVFQALEQLGHQAFRPGQERAVMRILSGISTLLVLPTGAGKSLCYQLPALLYSRRSPCLTLVVSPLLSLMDDQVSGLPPCLKAACIHSGMTRKQRESVLQKIRAAQVHVLMLTPEALVGAGGLPPAAQLPPVAFACIDEAHCLSQWSHNFRPCYLRVCKVLRERMGVHCFLGLTATATRRTASDVAQHLAVAEEPDLHGPAPVPTNLHLSVSMDRDTDQALLTLLQGKRFQNLDSIIIYCNRREDTERIAALLRTCLHAAWVPGSGGRAPKTTAEAYHAGMCSRERRRVQRAFMQGQLRVVVATVAFGMGLDRPDVRAVLHLGLPPSFESYVQAVGRAGRDGQPAHCHLFLQPQGEDLRELRRHVHADSTDFLAVKRLVQRVFPACTCTCTRPPSEQEGAVGGERPVPKYPPQEAEQLSHQAAPGPRRVCMGHERALPIQLTVQALDMPEEAIETLLCYLELHPHHWLELLATTYTHCRLNCPGGPAQLQALAHRCPPLAVCLAQQLPEDPGQGSSSVEFDMVKLVDSMGWELASVRRALCQLQWDHEPRTGVRRGTGVLVEFSELAFHLRSPGDLTAEEKDQICDFLYGRVQARERQALARLRRTFQAFHSVAFPSCGPCLEQQDEERSTRLKDLLGRYFEEEEGQEPGGMEDAQGPEPGQARLQDWEDQVRCDIRQFLSLRPEEKFSSRAVARIFHGIGSPCYPAQVYGQDRRFWRKYLHLSFHALVGLATEELLQVAR
no binding (tested: 5 µg each)			MBP-RECQ4 (455-1208) (domain or fragment, UniProt O94761 455-1208) SLGPSGQLAETPAEVFQALEQLGHQAFRPGQERAVMRILSGISTLLVLPTGAGKSLCYQLPALLYSRRSPCLTLVVSPLLSLMDDQVSGLPPCLKAACIHSGMTRKQRESVLQKIRAAQVHVLMLTPEALVGAGGLPPAAQLPPVAFACIDEAHCLSQWSHNFRPCYLRVCKVLRERMGVHCFLGLTATATRRTASDVAQHLAVAEEPDLHGPAPVPTNLHLSVSMDRDTDQALLTLLQGKRFQNLDSIIIYCNRREDTERIAALLRTCLHAAWVPGSGGRAPKTTAEAYHAGMCSRERRRVQRAFMQGQLRVVVATVAFGMGLDRPDVRAVLHLGLPPSFESYVQAVGRAGRDGQPAHCHLFLQPQGEDLRELRRHVHADSTDFLAVKRLVQRVFPACTCTCTRPPSEQEGAVGGERPVPKYPPQEAEQLSHQAAPGPRRVCMGHERALPIQLTVQALDMPEEAIETLLCYLELHPHHWLELLATTYTHCRLNCPGGPAQLQALAHRCPPLAVCLAQQLPEDPGQGSSSVEFDMVKLVDSMGWELASVRRALCQLQWDHEPRTGVRRGTGVLVEFSELAFHLRSPGDLTAEEKDQICDFLYGRVQARERQALARLRRTFQAFHSVAFPSCGPCLEQQDEERSTRLKDLLGRYFEEEEGQEPGGMEDAQGPEPGQARLQDWEDQVRCDIRQFLSLRPEEKFSSRAVARIFHGIGSPCYPAQVYGQDRRFWRKYLHLSFHALVGLATEELLQVAR

— paper PMC11791078, “RECQ4-MUS81 interaction contributes to telomere maintenance with implications to Rothmund-Thomson syndrome” (Nature Communications, 2025)
